The list shows a part of the results.
What was measured:
Experiment in all cases: log2 fold change, soluble protein after heating vs DMSO (PISA); higher = thermal stabilisation; K562 lysate, 10 uM; active = over 0.2 and 3.5 SD of the protein, either way, in both replicates (recomputed)
[1] = compound: Cc1cn(-c2cc(NC(=O)c3ccc(C)c(Nc4nccc(-c5cccnc5)n4)c3)cc(C(F)(F)F)c2)cn1 [nilotinib]
In short: (§1)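 Thermal stability, expressed as log-two fold change relative to solvent controls, is given from duplicates. Crude K562 extract in PBS pH 7.4 with 1 mM MgCl2, at 1 mg/mL protein, was treated with 10 μM compound for 30 min and heated in aliquots for 3 min across 48°C-58°C. After pooling, adjustment to 0.5% NP-40 at 4°C and centrifugation at 21,000xg for 90 min, supernatant protein was measured by TMTpro 16plex LC-MS/MS with channel sums equalised.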

Protein sequences, listed by entry. Tags and fused reporters are not part of them. Lines headed by an entry give the natural chain unless they say otherwise; changes in a name come on top.
UniProt Q9Y617: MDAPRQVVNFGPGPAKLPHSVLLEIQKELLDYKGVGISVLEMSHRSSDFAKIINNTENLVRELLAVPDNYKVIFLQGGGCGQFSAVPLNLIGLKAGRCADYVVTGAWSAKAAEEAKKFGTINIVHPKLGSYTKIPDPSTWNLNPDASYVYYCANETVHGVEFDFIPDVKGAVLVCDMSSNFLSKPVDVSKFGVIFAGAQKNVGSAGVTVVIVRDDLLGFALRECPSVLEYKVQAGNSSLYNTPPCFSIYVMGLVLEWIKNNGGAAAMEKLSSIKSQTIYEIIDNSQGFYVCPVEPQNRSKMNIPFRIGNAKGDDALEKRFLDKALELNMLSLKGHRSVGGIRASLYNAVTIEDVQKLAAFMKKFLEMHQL
UniProt P43378: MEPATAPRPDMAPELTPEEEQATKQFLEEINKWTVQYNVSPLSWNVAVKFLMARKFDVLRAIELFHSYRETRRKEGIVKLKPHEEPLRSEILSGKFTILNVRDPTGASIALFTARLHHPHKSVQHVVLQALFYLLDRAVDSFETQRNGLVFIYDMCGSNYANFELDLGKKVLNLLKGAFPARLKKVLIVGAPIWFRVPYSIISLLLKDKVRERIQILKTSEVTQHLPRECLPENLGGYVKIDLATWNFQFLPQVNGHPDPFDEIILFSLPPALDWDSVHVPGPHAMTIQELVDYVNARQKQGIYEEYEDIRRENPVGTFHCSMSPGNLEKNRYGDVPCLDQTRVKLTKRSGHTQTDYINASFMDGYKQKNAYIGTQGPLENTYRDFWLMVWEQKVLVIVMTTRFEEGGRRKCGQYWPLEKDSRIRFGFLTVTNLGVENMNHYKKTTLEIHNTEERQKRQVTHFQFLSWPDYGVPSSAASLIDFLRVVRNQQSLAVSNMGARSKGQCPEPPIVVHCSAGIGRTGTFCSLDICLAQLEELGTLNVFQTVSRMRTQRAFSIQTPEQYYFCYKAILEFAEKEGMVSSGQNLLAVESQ
UniProt Q8WUY3: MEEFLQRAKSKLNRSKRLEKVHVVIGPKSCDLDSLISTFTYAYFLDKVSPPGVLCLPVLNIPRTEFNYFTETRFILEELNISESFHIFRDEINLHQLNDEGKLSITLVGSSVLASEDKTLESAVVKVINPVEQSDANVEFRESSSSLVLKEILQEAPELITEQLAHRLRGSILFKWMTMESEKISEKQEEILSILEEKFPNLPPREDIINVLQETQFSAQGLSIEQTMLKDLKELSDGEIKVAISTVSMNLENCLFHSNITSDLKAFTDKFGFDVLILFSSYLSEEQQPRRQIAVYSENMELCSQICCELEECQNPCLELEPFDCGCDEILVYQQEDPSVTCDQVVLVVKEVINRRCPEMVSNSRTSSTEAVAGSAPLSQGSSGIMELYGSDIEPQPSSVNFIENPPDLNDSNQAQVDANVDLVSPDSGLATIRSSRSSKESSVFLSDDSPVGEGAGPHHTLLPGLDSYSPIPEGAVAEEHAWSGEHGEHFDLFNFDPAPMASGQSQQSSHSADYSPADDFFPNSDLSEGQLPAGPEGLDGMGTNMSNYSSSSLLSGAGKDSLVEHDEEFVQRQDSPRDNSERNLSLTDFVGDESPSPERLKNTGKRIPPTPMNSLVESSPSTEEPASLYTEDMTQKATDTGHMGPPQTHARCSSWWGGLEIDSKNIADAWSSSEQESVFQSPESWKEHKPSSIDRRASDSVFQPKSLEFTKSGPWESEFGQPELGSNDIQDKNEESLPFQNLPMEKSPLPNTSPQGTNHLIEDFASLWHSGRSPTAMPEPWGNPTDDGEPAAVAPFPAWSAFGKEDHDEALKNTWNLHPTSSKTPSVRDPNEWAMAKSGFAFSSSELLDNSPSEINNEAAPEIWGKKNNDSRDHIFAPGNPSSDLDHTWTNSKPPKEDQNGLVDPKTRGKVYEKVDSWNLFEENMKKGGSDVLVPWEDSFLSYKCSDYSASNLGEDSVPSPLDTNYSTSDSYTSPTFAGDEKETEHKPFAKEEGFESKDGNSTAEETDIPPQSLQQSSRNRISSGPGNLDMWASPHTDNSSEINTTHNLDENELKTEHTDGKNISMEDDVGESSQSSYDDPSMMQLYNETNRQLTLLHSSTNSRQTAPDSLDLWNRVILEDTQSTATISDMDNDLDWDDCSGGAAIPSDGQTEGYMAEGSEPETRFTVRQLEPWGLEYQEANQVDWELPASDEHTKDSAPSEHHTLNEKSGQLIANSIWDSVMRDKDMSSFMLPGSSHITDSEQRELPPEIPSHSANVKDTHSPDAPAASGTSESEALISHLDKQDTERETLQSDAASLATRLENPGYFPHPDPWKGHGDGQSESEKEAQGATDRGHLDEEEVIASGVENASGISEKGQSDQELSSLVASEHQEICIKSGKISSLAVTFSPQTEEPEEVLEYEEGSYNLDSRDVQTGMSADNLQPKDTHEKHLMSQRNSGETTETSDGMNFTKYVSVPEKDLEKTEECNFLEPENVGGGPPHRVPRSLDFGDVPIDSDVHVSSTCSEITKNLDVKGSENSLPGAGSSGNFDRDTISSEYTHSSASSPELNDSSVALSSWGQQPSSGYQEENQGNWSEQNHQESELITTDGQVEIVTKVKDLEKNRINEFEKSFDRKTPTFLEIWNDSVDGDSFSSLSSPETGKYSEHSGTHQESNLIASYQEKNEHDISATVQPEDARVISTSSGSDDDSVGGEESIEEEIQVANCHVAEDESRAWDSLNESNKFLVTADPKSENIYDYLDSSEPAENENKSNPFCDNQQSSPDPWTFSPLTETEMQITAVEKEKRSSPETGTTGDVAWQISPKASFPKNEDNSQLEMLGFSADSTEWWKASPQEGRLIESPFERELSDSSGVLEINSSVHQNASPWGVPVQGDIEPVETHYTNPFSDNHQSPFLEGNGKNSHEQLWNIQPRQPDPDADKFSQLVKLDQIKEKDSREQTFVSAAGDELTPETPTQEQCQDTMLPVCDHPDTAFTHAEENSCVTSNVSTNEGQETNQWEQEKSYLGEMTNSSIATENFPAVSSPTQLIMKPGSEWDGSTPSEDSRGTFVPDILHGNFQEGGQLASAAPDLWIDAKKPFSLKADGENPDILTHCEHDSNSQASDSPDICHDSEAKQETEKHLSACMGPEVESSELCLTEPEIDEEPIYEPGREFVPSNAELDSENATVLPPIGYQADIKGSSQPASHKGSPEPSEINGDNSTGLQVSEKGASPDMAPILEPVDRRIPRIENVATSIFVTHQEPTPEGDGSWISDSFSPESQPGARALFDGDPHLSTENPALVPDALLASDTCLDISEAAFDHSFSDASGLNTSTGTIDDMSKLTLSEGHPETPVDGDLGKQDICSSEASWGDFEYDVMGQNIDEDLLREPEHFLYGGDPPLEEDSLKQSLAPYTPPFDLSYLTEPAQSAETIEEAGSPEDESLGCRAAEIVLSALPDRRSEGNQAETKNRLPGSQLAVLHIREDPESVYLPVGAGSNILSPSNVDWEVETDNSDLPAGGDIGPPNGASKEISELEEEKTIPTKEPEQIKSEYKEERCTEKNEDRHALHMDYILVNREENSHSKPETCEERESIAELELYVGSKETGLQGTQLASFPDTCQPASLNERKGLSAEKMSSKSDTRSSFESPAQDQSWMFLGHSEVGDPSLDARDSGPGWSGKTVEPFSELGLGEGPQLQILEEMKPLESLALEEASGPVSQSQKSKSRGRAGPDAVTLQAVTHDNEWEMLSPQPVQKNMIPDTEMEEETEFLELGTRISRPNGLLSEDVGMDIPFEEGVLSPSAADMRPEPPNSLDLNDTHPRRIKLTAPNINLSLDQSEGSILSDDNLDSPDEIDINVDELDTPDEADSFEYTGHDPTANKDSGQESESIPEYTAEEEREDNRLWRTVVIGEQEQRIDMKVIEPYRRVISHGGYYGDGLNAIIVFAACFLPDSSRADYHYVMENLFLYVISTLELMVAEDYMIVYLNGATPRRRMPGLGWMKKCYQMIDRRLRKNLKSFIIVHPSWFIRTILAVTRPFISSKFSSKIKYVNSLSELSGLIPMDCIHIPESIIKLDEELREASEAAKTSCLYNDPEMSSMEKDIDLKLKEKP
UniProt Q8TB72: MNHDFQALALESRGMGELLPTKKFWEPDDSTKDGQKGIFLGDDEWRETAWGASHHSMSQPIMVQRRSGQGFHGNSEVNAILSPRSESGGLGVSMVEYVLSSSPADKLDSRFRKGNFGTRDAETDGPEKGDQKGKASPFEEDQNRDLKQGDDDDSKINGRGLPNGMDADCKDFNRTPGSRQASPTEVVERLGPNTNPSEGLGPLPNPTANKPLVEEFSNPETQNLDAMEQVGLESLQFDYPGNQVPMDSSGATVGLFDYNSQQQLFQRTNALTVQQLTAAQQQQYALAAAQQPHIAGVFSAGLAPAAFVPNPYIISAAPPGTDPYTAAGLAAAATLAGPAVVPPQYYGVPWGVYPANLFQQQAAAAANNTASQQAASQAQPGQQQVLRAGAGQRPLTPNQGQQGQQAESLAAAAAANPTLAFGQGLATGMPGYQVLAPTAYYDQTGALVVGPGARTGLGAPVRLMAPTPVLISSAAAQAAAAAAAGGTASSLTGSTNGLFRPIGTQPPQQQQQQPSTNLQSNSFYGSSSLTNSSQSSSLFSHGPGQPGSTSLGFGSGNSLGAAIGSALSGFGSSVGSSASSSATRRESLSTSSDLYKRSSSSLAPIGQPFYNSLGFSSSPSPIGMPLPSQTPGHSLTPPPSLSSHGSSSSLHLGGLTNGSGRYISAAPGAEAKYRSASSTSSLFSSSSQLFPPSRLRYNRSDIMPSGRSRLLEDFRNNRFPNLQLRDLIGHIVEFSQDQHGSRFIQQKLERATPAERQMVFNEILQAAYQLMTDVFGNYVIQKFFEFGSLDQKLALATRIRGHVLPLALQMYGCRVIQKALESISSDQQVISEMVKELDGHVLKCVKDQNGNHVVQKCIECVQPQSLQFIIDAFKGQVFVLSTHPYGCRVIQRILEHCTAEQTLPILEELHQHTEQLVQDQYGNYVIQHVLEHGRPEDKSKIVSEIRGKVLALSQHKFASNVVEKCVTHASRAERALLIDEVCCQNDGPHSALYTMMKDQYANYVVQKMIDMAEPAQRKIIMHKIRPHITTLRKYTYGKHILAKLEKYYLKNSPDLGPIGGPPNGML
UniProt Q5JS54: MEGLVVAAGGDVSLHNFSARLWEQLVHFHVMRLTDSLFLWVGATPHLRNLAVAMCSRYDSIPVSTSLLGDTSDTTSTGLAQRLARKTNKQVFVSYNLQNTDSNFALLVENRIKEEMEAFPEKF
UniProt Q99436: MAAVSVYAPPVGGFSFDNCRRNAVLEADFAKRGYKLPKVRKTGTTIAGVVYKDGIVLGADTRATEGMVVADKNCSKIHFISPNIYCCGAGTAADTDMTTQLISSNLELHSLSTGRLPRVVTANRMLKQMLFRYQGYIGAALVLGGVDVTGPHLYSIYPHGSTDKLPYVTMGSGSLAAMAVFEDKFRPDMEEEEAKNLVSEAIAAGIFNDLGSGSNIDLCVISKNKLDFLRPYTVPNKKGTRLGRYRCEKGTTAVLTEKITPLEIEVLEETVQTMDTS
UniProt P20962: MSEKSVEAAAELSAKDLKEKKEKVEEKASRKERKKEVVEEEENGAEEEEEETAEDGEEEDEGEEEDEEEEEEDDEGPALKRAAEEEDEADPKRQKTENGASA
UniProt O43242, whole entry, looked up: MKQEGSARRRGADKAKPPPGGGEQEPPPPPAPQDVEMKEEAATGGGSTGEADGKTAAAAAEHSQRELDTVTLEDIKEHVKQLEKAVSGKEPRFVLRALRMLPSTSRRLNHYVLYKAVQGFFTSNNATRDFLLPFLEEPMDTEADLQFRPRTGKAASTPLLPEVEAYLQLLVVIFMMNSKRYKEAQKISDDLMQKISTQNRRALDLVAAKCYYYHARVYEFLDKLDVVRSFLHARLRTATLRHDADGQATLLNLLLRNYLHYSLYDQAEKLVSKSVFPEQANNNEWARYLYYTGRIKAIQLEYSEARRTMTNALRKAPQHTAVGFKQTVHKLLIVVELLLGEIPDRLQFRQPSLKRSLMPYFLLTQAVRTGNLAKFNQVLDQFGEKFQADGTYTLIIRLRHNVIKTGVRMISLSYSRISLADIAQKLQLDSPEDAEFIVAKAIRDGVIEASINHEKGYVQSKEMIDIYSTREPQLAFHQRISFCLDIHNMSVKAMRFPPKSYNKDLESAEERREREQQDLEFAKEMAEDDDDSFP
UniProt Q15008: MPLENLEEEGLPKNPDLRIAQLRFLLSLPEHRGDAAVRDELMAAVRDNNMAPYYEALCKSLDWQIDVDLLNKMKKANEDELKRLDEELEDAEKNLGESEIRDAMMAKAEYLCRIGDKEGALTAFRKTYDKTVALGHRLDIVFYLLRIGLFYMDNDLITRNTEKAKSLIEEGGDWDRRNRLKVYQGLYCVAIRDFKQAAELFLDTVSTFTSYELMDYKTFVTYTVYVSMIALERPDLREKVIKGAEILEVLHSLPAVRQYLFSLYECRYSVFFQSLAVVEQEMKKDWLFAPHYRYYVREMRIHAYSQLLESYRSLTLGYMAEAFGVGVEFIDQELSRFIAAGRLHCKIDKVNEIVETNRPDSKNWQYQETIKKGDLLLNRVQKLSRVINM

[2] = compound: Cc1nc(Nc2n[nH]c3c2CN(C(=O)N[C@H](CN(C)C)c2ccccc2)C3(C)C)c2sccc2n1
In short: as §1

[3] = compound: Cc1nc(Nc2ncc(C(=O)Nc3c(C)cccc3Cl)s2)cc(N2CCN(CCO)CC2)n1 [dasatinib]
In short: as §1

[4] = compound: Cc1ncc(-c2ccnc(Nc3ccc(S(C)(=O)=O)cc3)n2)n1C(C)C
In short: as §1

[5] = compound: Cn1cc(-c2ccc3c(c2)CCN3C(=O)Cc2cccc(C(F)(F)F)c2)c2c(N)ncnc21
In short: as §1

[6] = compound: Cn1cc(CNCC2CCN(c3ncc(C(=O)NO)cn3)CC2)c2ccccc21 [quisinostat]
In short: as §1

[7] = compound: Cn1cncc1[C@@](N)(c1ccc(Cl)cc1)c1ccc2c(c1)c(-c1cccc(Cl)c1)cc(=O)n2C [tipifarnib]
In short: as §1

[8] = compound: NC(=O)Nc1cc(-c2cccc(F)c2)sc1C(=O)N[C@H]1CCCNC1
In short: as §1

[9] = compound: NC(=O)c1cnc(N[C@@H]2CCCC[C@@H]2N)nc1Nc1cccc(-n2nccn2)c1
In short: as §1

[10] = compound: NC1(c2ccc(-c3nc4ccn5c(=O)[nH]nc5c4cc3-c3ccccc3)cc2)CCC1
In short: as §1

[11] = compound: NCC(=O)Nc1ccc(-n2nc(C(F)(F)F)cc2-c2ccc3c(ccc4ccccc43)c2)cc1
In short: as §1

[12] = compound: O=C(CCCCCCC(=O)Nc1ccccc1)NO [vorinostat]
In short: as §1

[13] = compound: O=C(O)c1ccc2c(c1)nc(Nc1cccc(Cl)c1)c1ccncc12 [silmitasertib]
In short: as §1

[14] = compound: O=C1NC(=O)C(c2cnc3ccccn23)=C1c1cn2c3c(cc(F)cc13)CN(C(=O)N1CCCCC1)CC2
In short: as §1

[15] = compound: c1cn2cc(-c3ccc4cn[nH]c4c3)nc(Nc3ccc(N4CCOCC4)cc3)c2n1 [entospletinib]
In short: as §1

Measured: log2 fold change

PSME4 (UniProt Q14997)
inactive: [1] 0.001 | [2] -0.015 | [3] -0.028 | [4] -0.022 | [5] -0.016 | [6] -0.061 | [7] -0.012 | [8] 0.108 | [9] 0.01 | [10] -0.015 | [11] -0.006 | [12] -0.197 | [13] 0.062 | [14] 0.022 | [15] -0.002

PSMA5 (UniProt P28066)
inactive: [1] 0.022 | [2] -0.039 | [3] 0.012 | [4] 0.013 | [5] 0 | [6] -0.022 | [7] -0.011 | [8] 0.006 | [9] -0.002 | [10] -0.01 | [11] 0.014 | [12] 0.096 | [13] -0.03 | [14] 0.023 | [15] -0.004

PSMD2 (UniProt Q13200)
inactive: [1] 0.004 | [2] -0.009 | [3] -0.014 | [4] -0.013 | [5] -0.001 | [6] -0.018 | [7] -0.003 | [8] 0.011 | [9] 0.002 | [10] -0.018 | [11] 0.021 | [12] -0.004 | [13] 0.008 | [14] -0.004 | [15] 0.001

PSAT1 (UniProt Q9Y617)
inactive: [1] 0.016 | [2] 0.025 | [3] 0.025 | [4] 0.035 | [5] -0.023 | [6] 0.032 | [7] -0.009 | [8] -0.03 | [9] 0.018 | [10] 0.012 | [11] 0 | [12] 0.137 | [13] 0.006 | [14] -0.016 | [15] 0

PSMB9 (UniProt P28065)
inactive: [1] 0.019 | [2] 0.092 | [3] -0.031 | [4] -0.098 | [5] -0.033 | [6] -0.213 | [7] 0.024 | [8] 0.027 | [9] 0.034 | [10] -0.076 | [11] 0.07 | [12] 0.057 | [13] 0.008 | [14] 0.081 | [15] 0

PTPN9 (UniProt P43378)
inactive: [1] -0.189 | [2] 0.068 | [3] -0.008 | [4] -0.058 | [5] -0.069 | [6] 0.028 | [7] 0.015 | [8] 0.05 | [9] 0.056 | [10] 0.006 | [11] 0.082 | [12] -0.177 | [13] -0.092 | [14] -0.08 | [15] -0.26

PTPRC (UniProt P08575)
inactive: [1] -0.026 | [2] -0.024 | [3] 0.014 | [4] -0.013 | [5] 0.027 | [6] -0.039 | [7] 0.002 | [8] -0.002 | [9] 0.001 | [10] 0 | [11] 0 | [12] 0.092 | [13] 0.01 | [14] -0.006 | [15] -0.035

PRUNE2 isoform 3 (UniProt Q8WUY3)
inactive: [1] 0.028 | [2] 0.054 | [3] 0.004 | [4] -0.018 | [5] -0.009 | [6] -0.019 | [7] 0.093 | [8] -0.01 | [9] 0.079 | [10] -0.032 | [11] 0.008 | [12] 0.054 | [13] 0.004 | [14] 0.069

PSMC6 (UniProt P62333)
inactive: [1] -0.004 | [2] -0.003 | [3] -0.018 | [4] 0.001 | [5] 0.031 | [6] 0.018 | [7] -0.001 | [8] 0.022 | [9] -0.004 | [10] 0.005 | [11] 0.013 | [12] -0.192 | [13] 0.005 | [14] 0.006 | [15] 0

PSMD12 (UniProt O00232)
inactive: [1] 0.015 | [2] -0.023 | [3] 0.023 | [4] -0.038 | [5] 0.011 | [6] -0.002 | [7] 0.015 | [8] 0.005 | [9] 0.003 | [10] 0 | [11] 0.007 | [12] -0.014 | [13] -0.012 | [14] -0.025 | [15] 0.006

PRTFDC1 (UniProt Q9NRG1)
inactive: [1] 0.009 | [2] 0.014 | [3] 0.004 | [4] -0.018 | [5] -0.007 | [6] 0.031 | [7] 0.012 | [8] -0.013 | [9] -0.012 | [10] 0.041 | [11] -0.011 | [12] 0.114 | [13] -0.005 | [14] -0.038 | [15] 0.026

PUM2 (UniProt Q8TB72)
inactive: [1] -0.109 | [2] -0.021 | [3] -0.146 | [4] -0.052 | [5] 0.1 | [6] 0.108 | [7] -0.05 | [8] 0.014 | [9] 0.071 | [10] -0.05 | [11] 0.292 | [12] -0.019 | [13] -0.131 | [14] 0.094 | [15] -0.01

PTMA (UniProt P06454)
inactive: [1] 0.008 | [2] -0.046 | [3] 0.056 | [4] 0.019 | [5] -0.025 | [6] 0.047 | [7] 0.045 | [8] 0.017 | [9] 0.032 | [10] -0.006 | [11] -0.002 | [12] 0.093 | [13] -0.036 | [14] 0.023 | [15] -0.025

PSMG4 isoform 2 (UniProt Q5JS54)
inactive: [1] 0.039 | [2] 0.006 | [3] 0.017 | [4] 0.134 | [5] -0.009 | [6] -0.073 | [7] -0.018 | [8] -0.056 | [9] -0.054 | [10] 0.007 | [11] -0.039 | [12] 0 | [13] -0.031 | [14] 0.033 | [15] -0.018

PSMB7 (UniProt Q99436)
inactive: [1] 0.043 | [2] 0.001 | [3] 0.039 | [4] 0.034 | [5] 0.014 | [6] -0.046 | [7] 0.009 | [8] 0.003 | [9] -0.002 | [10] -0.011 | [11] -0.002 | [12] 0.108 | [13] -0.027 | [14] 0.012 | [15] 0.02

PSAP isoform 3 (UniProt P07602)
inactive: [1] -0.04 | [2] -0.012 | [3] 0.005 | [4] -0.062 | [5] -0.009 | [6] 0.023 | [7] 0.033 | [8] -0.018 | [9] -0.02 | [10] 0.033 | [11] -0.021 | [12] 0.108 | [13] -0.007 | [14] 0.013 | [15] -0.066

PTMS (UniProt P20962)
inactive: [1] -0.023 | [2] 0.002 | [3] 0.005 | [4] 0.02 | [5] 0.02 | [6] -0.049 | [7] 0 | [8] 0.025 | [9] 0.033 | [10] -0.019 | [11] 0.012 | [12] 0.107 | [13] -0.049 | [14] -0.027 | [15] -0.031

PSMD3 (UniProt O43242)
inactive: [1] 0.006 | [2] -0.01 | [3] -0.007 | [4] -0.002 | [5] -0.008 | [6] 0.023 | [7] 0.023 | [8] 0.006 | [9] -0.01 | [10] -0.004 | [11] -0.012 | [12] -0.002 | [13] -0.003 | [14] -0.012 | [15] 0

PSEN1 (UniProt P49768)
inactive: [1] -0.01 | [2] -0.034 | [3] 0.008 | [4] 0.058 | [5] -0.029 | [6] -0.11 | [7] 0.076 | [8] 0.016 | [9] 0.019 | [10] -0.01 | [11] -0.048 | [12] 0.004 | [13] -0.036 | [14] -0.064 | [15] -0.019

PSMD6 isoform 4 (UniProt Q15008)
inactive: [1] -0.022 | [2] 0.031 | [3] 0.004 | [4] 0.003 | [5] 0.011 | [6] -0.016 | [7] -0.009 | [8] -0.012 | [9] 0.013 | [10] -0.003 | [11] 0.001 | [12] 0.075 | [13] -0.001 | [14] -0.02 | [15] 0.025

PRPSAP1 isoform 2 (UniProt Q14558)
inactive: [1] 0.057 | [2] -0.036 | [3] -0.009 | [4] -0.004 | [5] -0.01 | [6] 0.101 | [7] -0.006 | [8] 0.006 | [9] 0.011 | [10] 0.007 | [11] -0.012 | [12] -0.06 | [13] -0.003 | [14] 0.043 | [15] -0.041

— the supplement of paper PMC10849652
